Earlier results, collected in patent US12297220B2, “Phenethylamines and cathinones precursors” (Transcend Therapeutics, Inc., priority 2022, dated 2025).

Conditions: reported by consumers; cited from earlier work

## CNC(C)C(=O)c1ccc2c(c1)OCO2 (centres unmarked) [Methylone, methylone]
  duration: 2 to 3.5 h
  onset of action: 15 to 30 min
